Laboratory results: PubChem BioAssay AID1224826 (NIAID, 2016)
The whole screen tested about 17,000 reagents; below is a part drawn at random. About 1,110 of all reagents (6.6%) count as active. 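Active means lowered or raised reporter signal; replicate intensities are raw and not normalised per plate.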 Further read-outs or replicates are left out here.

- Screen: 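Genes that change LPS-induced Tnf promoter activity in mouse macrophages when knocked down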 (primary screen)
- Cells: RAW264.7 G9 macrophages from mouse bearing reporters for p65 (GFP) and the Tnf promoter (mCherry)
- Reagents: siRNA pool against mouse genes, 100 nM
- Timing: 16 h of LPS stimulation, after 2 days of siRNA transfection
- Challenge: bacterial lipopolysaccharide (Salmonella minnesota R595), 10 ng/ml
- Detection: 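Imaged Tnf reporter mCherry in nuclei, minus background, normalised per plate to the median and expressed as robust z-scores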
- Direction: Tnf reporter robust z-score: higher = stronger Tnf promoter reporter signal after LPS
- Call rule: 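Called active when robust z-score is at most -1.3, matching the median of the Tlr4 knock-down control, or over 3; control wells and wells with under 50 cells never active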
- Calls: active = Tnf reporter clearly lowered or raised; inactive = no clear change in Tnf reporter

gene | PubChem SID | Tnf reporter robust z-score | fewer than 50 cells in well | call
Trim61 (tripartite motif-containing 61) | SID315480728 | 3.34 | enough cells in well | active
H2-M10.6 (histocompatibility 2, M region locus 10.6) | SID315481879 | 1.74 | enough cells in well | inactive
Kcnh5 | SID315479391 | -0.66 | enough cells in well | inactive
Arhgdia (Rho GDP dissociation inhibitor alpha) | SID315477422 | – | fewer than 50 cells per well; well left out of calls | inactive
Kri1 (KRI1 homolog) | SID315477915 | -0.41 | enough cells in well | inactive
Olfr242 (olfactory receptor 242) | SID315481960 | 2.13 | enough cells in well | inactive
Gpd1l (glycerol-3-phosphate dehydrogenase 1-like) | SID315481657 | -1.74 | enough cells in well | active
Serpinb9d (serine (or cysteine) peptidase inhibitor, clade B, member 9d) | SID315469422 | -0.71 | enough cells in well | inactive
Ifi209 (interferon activated gene 209) | SID315479298 | 1.75 | enough cells in well | inactive
Uros (uroporphyrinogen III synthase) | SID315469953 | 0.03 | enough cells in well | inactive
Pelp1 (proline, glutamic acid and leucine rich protein 1) | SID315475092 | 0.21 | enough cells in well | inactive
Boc (BOC cell adhesion associated, oncogene regulated) | SID315477099 | 0.07 | enough cells in well | inactive
Rala (Ras like proto-oncogene A) | SID315471352 | -0.48 | enough cells in well | inactive
Hmox1 (heme oxygenase 1) | SID315467231 | -0.83 | enough cells in well | inactive
Tmem150b (transmembrane protein 150B) | SID315481596 | 1.16 | enough cells in well | inactive
Cdc20 (cell division cycle 20) | SID315476664 | -1.14 | enough cells in well | inactive
Stx7 (syntaxin 7) | SID315471048 | -0.24 | enough cells in well | inactive
Kcng4 (potassium voltage-gated channel, subfamily G, member 4) | SID315472613 | -0.12 | enough cells in well | inactive
Arl6ip1 (ADP-ribosylation factor-like 6 interacting protein 1) | SID315471184 | – | fewer than 50 cells per well; well left out of calls | inactive
Galnt4 (polypeptide N-acetylgalactosaminyltransferase 4) | SID315466820 | -0.32 | enough cells in well | inactive
Otub1 (OTU domain, ubiquitin aldehyde binding 1) | SID315476590 | 0.6 | enough cells in well | inactive
Cyth2 (cytohesin 2) | SID315468732 | -0.57 | enough cells in well | inactive
Podxl2 (podocalyxin-like 2) | SID315481144 | -0.66 | enough cells in well | inactive
Eftud2 (elongation factor Tu GTP binding domain containing 2) | SID315469361 | -1.43 | enough cells in well | active

In a second layout: entries from further up
gene,PubChem SID,Tnf reporter robust z-score,fewer than 50 cells in well,call
"Serpinb9d (serine (or cysteine) peptidase inhibitor, clade B, member 9d)",SID315469422,-0.71,enough cells in well,inactive
Ifi209 (interferon activated gene 209),SID315479298,1.75,enough cells in well,inactive
